Results published in patent US7259142B2 (The United States of America, represented by the Secretary, …, priority 1999, dated 2007).

Experiments:
[1] = general procedure: Fmoc solid-phase peptide synthesis; PAL amide resin (0.53 mmol/g); conditions: whole synthesis, overall, scale of the general procedure 0.1 mmol
[2] = general procedure: Fmoc solid-phase peptide synthesis; PAL amide resin; conditions: whole synthesis, scale 0.1 mmol

## cyclo(CH2CO-Adi^1-Leu^2-Tyr^3-Glu^4-Asn^5-Val^6-Gly^7-Met^8-Tyr^9-Cys)-amide
[1]
  isolated yield: overall yield of 40%

## cyclo(CH2CO-Gla^1-Leu^2-Tyr^3-Glu^4-Asn^5-Val^6-Gly^7-Met^8-Tyr^9-Cys)-amide
[2]
  isolated yield: 30% yield
